Assay results as given in article PMC6340964.
Results are given in words; binding and its absence hold for the method and conditions named. In cells and extracts the contact can be indirect. Some entries that bind do so weakly or less than the wild type. Tags and fused reporters may be left off the sequences shown.

T1: Tim23 protein with the G145L mutation, His-tagged (G145Lhis) (S. cerevisiae) (UniProt P32897)
T1 sequence: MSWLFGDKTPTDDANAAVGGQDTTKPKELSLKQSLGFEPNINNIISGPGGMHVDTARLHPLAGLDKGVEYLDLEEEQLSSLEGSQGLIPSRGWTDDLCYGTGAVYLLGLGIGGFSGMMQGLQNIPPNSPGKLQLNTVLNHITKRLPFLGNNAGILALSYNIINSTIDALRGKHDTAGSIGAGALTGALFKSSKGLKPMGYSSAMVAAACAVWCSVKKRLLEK

T2: Tim23 protein, wild type, His-tagged (WThis) (S. cerevisiae) (UniProt P32897)
T2 sequence: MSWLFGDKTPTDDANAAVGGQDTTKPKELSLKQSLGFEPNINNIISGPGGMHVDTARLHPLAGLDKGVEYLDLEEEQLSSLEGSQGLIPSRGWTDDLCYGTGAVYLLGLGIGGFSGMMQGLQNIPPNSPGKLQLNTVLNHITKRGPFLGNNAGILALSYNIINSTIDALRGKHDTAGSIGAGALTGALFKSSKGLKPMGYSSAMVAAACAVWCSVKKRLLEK


Assays:
[1] = biological target: T1, Tim23 protein with the G145L mutation, His-tagged (G145Lhis) (S. cerevisiae); assay: pull-down; mitochondrial extracts (300 ug mitochondria) of TIM23 and tim23-G145L strains on Ni2+-NTA agarose beads, His-tagged Tim23 as bait, pull-down buffer with 0.05% digitonin, 45 min at 40°C as printed, three washes; total, unbound and bound fractions immunoblotted for Tim17p, Tim23p, Tim50p, Mgr2p
[2] = biological target: T2, Tim23 protein, wild type, His-tagged (WThis) (S. cerevisiae); assay: as above

binding [1]	binding [2]	Binder
binds	binds	Tim17p (protein, UniProt P39515 1-158) MSADHSRDPCPIVILNDFGGAFAMGAIGGVVWHGIKGFRNSPLGERGSGAMSAIKARAPVLGGNFGVWGGLFSTFDCAVKAVRKREDPWNAIIAGFFTGGALAVRGGWRHTRNSSITCACLLGVIEGVGLMFQRYAAWQAKPMAPPLPEAPSSQPLQA
no binding	binds	Mgr2 protein (protein, UniProt Q02889 1-113) MPPLPQNYAQQQPSNWDKFKMGLMMGTTVGVCTGILFGGFAIATQGPGPDGVVRTLGKYIAGSAGTFGLFMSIGSIIRSDSESSPMSHPNLNLQQQARLEMWKLRAKYGIRKD
